According to PubChem BioAssay AID2685 (National Center for Advancing Translational Sciences (NCATS), 2010):
Screen size: about 320,000 compounds; about 2,100 (0.66%) were called active. Calls come from the whole dose curve; as a rule, active = well fitted inhibition curve with a large enough effect in the signal ratio, with a control signal flat (not every such curve was filed as active); inconclusive = small, poorly fitted or top-dose-only effect, or effect the other way, or a change in a side signal; inactive = flat fitted curve, though single readings scatter; the % refers to the signal ratio. Inconclusive results, whose numbers are uncertain, are shown. Potencies of inconclusive entries are doubtful fits and often do not repeat.

Assay: qHTS Assay for Lipid Storage Modulators in Drosophila S3 Cells
Settings: BODIPY lipid droplet fluorescence, 18-24 h, cells fed with added oleic acid; lipid storage change, negative = inhibition: at 46.1 µM (top of the series) unless noted
How it was run: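 Drosophila S3 cells loaded with oleic acid (400 uM, as added) and compounds at several concentrations; lipid droplets imaged by 488-nm laser-scanning cytometry, 500–530 nm intensity and object ratio to cell channel. Percent activity normalized to 20 uM Triacsin C.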
% is set by controls: 0 for no effect and ±100 for the full control effect; potency is the fitted concentration of half-maximal effect.

Potency, inconclusive:
CCN(CC)S(=O)(=O)c1ccc2oc(C(=O)NCc3ccc(F)cc3)c(C)c2c1 4.11 µM [activator, partial curve]
O=C(Nc1ccc(-c2nc3ccccc3[nH]2)cc1)c1cccc(N2C(=O)CCC2=O)c1 8.2 µM [activator, partial curve]
COc1ccc(Nc2ccc(OC)cc2)cc1 29.1 µM [falling, single point]
COC(CNc1ncnc2c1cnn2C)OC 0.0046 µM [activator, full curve, poor fit]
COc1ccc(CC(=O)Nc2ccc(S(=O)(=O)Nc3nccs3)cc2)cc1 25.9 µM [activator, partial curve, poor fit]
CC(C)C(=O)NC(=S)N(Cc1ccccc1)Cc1ccccc1 0.0058 µM [falling, full curve, poor fit]
Cc1no[n+]([O-])c1COc1cccc(/C=N/Nc2nncn2N)c1 32.6 µM [falling, single point]

Lipid storage change, negative = inhibition, inconclusive:
COc1ccc(N(CC(=O)NC2CCCCC2)S(=O)(=O)c2cccnc2)cc1 -2.51% [at 9.22 µM]
O=C(COC(=O)/C=C/c1ccccc1[N+](=O)[O-])NCC(F)(F)F 1.58%
O=C(CN1CCN(C(=O)c2cncn2-c2ccccc2)CC1)Nc1ccccc1Cl 13%
CN1CCN(C2CC(=O)N(CCc3ccccc3)C2=O)CC1 (configuration not stated) -39.8%
O=C(/C=C/c1ccccc1Cl)OCC(=O)c1ccc[nH]1 2.84%
CCCCC(SCC(=O)Nc1ccccc1)C(=O)O (configuration not stated) -31.2%
CCN(Cc1ccccc1)S(=O)(=O)c1ccc2c(c1)NC(=O)CS2 10.3%
COc1cc(C(=O)NCCC(=O)NCCN2CCOCC2)cc(OC)c1OC -6.36%
COc1ccccc1CN1CN(S(=O)(=O)c2ccccc2)c2nc3ccccc3nc21 28%
O=C(O)CC(=O)Nc1ccccc1C(=O)O -45%
C/C(=N\NC(=O)c1nc2ccccn2c1C)c1ccco1 18.7%
CCN1CCSc2ccc(C(=O)NCc3ccccc3C)cc21 29.8%
C=CCCN([C@@H](C)C(=O)OC)S(=O)(=O)c1ccccc1Br 2.91%
NC(=O)c1ccc(NC(=O)C2CCCO2)cc1 (configuration not stated) -15.7%
O=C(COC(=O)c1ccccc1F)NC1CCCC1 -16%

2 successive records out of the list so far, quoted:
Lipid storage change, negative = inhibition, inconclusive:
COc1ccccc1CN1CN(S(=O)(=O)c2ccccc2)c2nc3ccccc3nc21 28%
O=C(O)CC(=O)Nc1ccccc1C(=O)O -45%
